Some results were stated once for a whole list of compounds, not compound by compound.
Legend:
Assay type in all cases: in vivo
[1] = test system: Orchid thrips (dichromothrips corbetti); assay: Orchid thrips mortality test, floral-immersion technique; conditions: 300 ppm; orchid petals dipped; adult thrips; after 4 days
Description: I.3 Orchid thrips (dichromothrips corbetti)
Dichromothrips corbetti adults used for bioassay were obtained from a colony maintained continuously under laboratory conditions. For testing purposes, the test compound was diluted to a concentration of 500 ppm (wt compound: vol diluent) in a 1:1 mixture of acetone:water, plus 0.01% Kinetic® surfactant.
Thrips potency of each compound was evaluated by using a floral-immersion technique. Plastic petri dishes were used as test arenas. All petals of individual, intact orchid flowers were dipped into treatment solution for approximately 3 seconds and allowed to dry for 2 hours. Treated flowers were placed into individual petri dishes along with 10-15 adult thrips. The petri dishes were then covered with lids. All test arenas were held under continuous light and a temperature of about 28° C. for duration of the assay. After 4 days, the numbers of live thrips were counted on each flower, and along inner walls of each petri dish. The level of thrips mortality was extrapolated from pre-treatment thrips numbers.

[2] = test system: Cotton Aphid (aphis gossypil); assay: Cotton aphid mortality test, cotyledons dipped in test solution; conditions: 300 ppm, counts after 5 days
[3] = test system: Green Peach Aphid (Myzus persicae); assay: Green peach aphid mortality test, pepper leaves dipped in test solution; conditions: 300 ppm; pepper plant leaves dipped; after 5 days

CC(=Cc1ccccc1)CNNC(=O)c1ccccn1 [A2]
mortality in comparison with untreated controls [1]: over 75%

CC(=Cc1ccc(F)cc1)CNNC(=O)c1cnc(C)cn1 [A10]
mortality in comparison with untreated controls [2]: over 75%

CC(=Cc1ccccc1F)CNNC(=O)c1cnc(C)cn1 [A11]
mortality in comparison with untreated controls [2]: over 75%

CC(=Cc1ccc(F)cc1)CNNC(=O)c1cccc(F)n1 [A12]
mortality in comparison with untreated controls [1]: over 75%

CC(=Cc1cccc(F)c1)CNNC(=O)c1cccc(F)n1 [A13]
mortality in comparison with untreated controls [3]: over 75%

CC(=Cc1ccccc1)CNNC(=O)c1ccncc1 [A16]
mortality in comparison with untreated controls [2]: over 75%

CC(=Cc1ccccc1)CNNC(=O)c1cccc(Cl)c1 [A19]
mortality in comparison with untreated controls [2]: over 75%

CC(=Cc1ccccc1)CNNC(=O)c1ccco1 [A21]
mortality in comparison with untreated controls [2]: over 75%

CC(=Cc1ccccc1)CNNC(=O)c1ccccc1 [A44]
mortality in comparison with untreated controls [2]: over 75%

CC(=Cc1ccccc1)CNNC(=O)c1ccc(N(C)C)cc1 [A47]
mortality in comparison with untreated controls [2]: over 75%

CC(=Cc1ccccc1)CNNC(=O)c1ccccc1F [A51]
mortality in comparison with untreated controls [3]: over 75%

CCc1cc(C(=O)NNCC(C)=Cc2ccccc2)on1 [A63]
mortality in comparison with untreated controls [2]: over 75%

COc1ccccc1CC(=O)NNCC(C)=Cc1ccccc1 [A68]
mortality in comparison with untreated controls [2]: over 75%

COc1ccsc1C(=O)NNCC(C)=Cc1ccccc1 [A70]
mortality in comparison with untreated controls [3]: over 75%

CC(=Cc1ccccc1)CNNC(=O)Cc1ccncc1 [A74]
mortality in comparison with untreated controls [3]: over 75%

CC(=Cc1ccccc1)CNNC(=O)Cc1cccnc1 [A75]
mortality in comparison with untreated controls [3]: over 75%

CN(NCC(Cl)=Cc1ccccc1)C(=O)c1ccccc1 [A79]
mortality in comparison with untreated controls [3]: over 75%

CN(NCC=Cc1ccccc1)C(=O)c1ccccc1 [A80]
mortality in comparison with untreated controls [3]: over 75%

CC(=Cc1ccccc1)CNN(C)C(=O)c1ccccc1 [A81]
mortality in comparison with untreated controls [3]: over 75%

CC(=Cc1ccc(F)cc1)CNN(C)C(=O)Cc1ccccc1 [A83]
mortality in comparison with untreated controls [3]: over 75%

CC(=Cc1ccccc1)CNNC(=O)c1ccc(F)cc1F [A141]
mortality in comparison with untreated controls [1]: over 75%

CC(=Cc1ccccc1)CNNC(=O)c1ccnc(Cl)c1 [A149]
mortality in comparison with untreated controls [1]: over 75%

CC(=Cc1ccccc1)CNNC(=O)c1cc(Cl)nc(Cl)c1 [A155]
mortality in comparison with untreated controls [1]: over 75%

CC(=Cc1cccc(F)c1)CNN(C)C(=O)CCc1ccccc1 [A173]
mortality in comparison with untreated controls [1]: over 75%

O=C(NNCC=Cc1ccccc1F)c1ccccc1F [A218]
mortality in comparison with untreated controls [1]: over 75%

O=C(NNCC(=Cc1cc(Cl)cc(Cl)c1)c1ccc(F)cc1)c1ccccc1F [A223]
mortality in comparison with untreated controls [1]: over 75%

CC(=Cc1cc(F)cc(F)c1)CNNC(=O)c1ccccc1F [A260]
mortality in comparison with untreated controls [1]: over 75%

O=C(NNCC(Cl)=Cc1ccccc1)c1ccc(F)cc1F [A303]
mortality in comparison with untreated controls [1]: over 75%

CC(=Cc1ccccc1F)CNNC(=O)c1ccc(F)cc1F [A305]
mortality in comparison with untreated controls [1]: over 75%

CC(=Cc1cc(F)cc(F)c1)CNN(C)C(=O)c1ccc(F)cc1F [A319]
mortality in comparison with untreated controls [1]: over 75%

O=C(NNCc1cc2ccccc2o1)c1cccnc1 [B1]
mortality in comparison with untreated controls [3]: over 75%

COc1cccc(C(=O)NNCc2cc3ccccc3o2)c1 [B11]
mortality in comparison with untreated controls [2]: over 75%

O=C(COc1ccccc1Cl)NNCc1cc2ccccc2o1 [B20]
mortality in comparison with untreated controls [2]: over 75%

O=C(NNCc1cc2ccccc2o1)c1cccs1 [B22]
mortality in comparison with untreated controls [3]: over 75%

O=C(NNCc1cc2ccccc2o1)c1ccccn1 [B25]
mortality in comparison with untreated controls [2]: over 75%

CN(NCc1cc2ccccc2o1)C(=O)c1ccccc1 [B34]
mortality in comparison with untreated controls [3]: over 75%

CC(=Cc1cccc(F)c1)CN(C)NC(=O)c1ccccc1F [C1]
mortality in comparison with untreated controls [1]: over 75%

CC(C)C(=Cc1ccco1)CNNC(=O)c1ccccn1 [E3]
mortality in comparison with untreated controls [1]: over 75%

From patent publication US20070265231A1, “Hydrazide Compounds for Combating Animal Pests” (priority 2005, published 2007)
